Experiment in all cases: co-IP
Experiment [1] concerns the target T1, FLAG-SCAP stably expressed in HeLa cells (hamster) (UniProt P97260).
T1 sequence: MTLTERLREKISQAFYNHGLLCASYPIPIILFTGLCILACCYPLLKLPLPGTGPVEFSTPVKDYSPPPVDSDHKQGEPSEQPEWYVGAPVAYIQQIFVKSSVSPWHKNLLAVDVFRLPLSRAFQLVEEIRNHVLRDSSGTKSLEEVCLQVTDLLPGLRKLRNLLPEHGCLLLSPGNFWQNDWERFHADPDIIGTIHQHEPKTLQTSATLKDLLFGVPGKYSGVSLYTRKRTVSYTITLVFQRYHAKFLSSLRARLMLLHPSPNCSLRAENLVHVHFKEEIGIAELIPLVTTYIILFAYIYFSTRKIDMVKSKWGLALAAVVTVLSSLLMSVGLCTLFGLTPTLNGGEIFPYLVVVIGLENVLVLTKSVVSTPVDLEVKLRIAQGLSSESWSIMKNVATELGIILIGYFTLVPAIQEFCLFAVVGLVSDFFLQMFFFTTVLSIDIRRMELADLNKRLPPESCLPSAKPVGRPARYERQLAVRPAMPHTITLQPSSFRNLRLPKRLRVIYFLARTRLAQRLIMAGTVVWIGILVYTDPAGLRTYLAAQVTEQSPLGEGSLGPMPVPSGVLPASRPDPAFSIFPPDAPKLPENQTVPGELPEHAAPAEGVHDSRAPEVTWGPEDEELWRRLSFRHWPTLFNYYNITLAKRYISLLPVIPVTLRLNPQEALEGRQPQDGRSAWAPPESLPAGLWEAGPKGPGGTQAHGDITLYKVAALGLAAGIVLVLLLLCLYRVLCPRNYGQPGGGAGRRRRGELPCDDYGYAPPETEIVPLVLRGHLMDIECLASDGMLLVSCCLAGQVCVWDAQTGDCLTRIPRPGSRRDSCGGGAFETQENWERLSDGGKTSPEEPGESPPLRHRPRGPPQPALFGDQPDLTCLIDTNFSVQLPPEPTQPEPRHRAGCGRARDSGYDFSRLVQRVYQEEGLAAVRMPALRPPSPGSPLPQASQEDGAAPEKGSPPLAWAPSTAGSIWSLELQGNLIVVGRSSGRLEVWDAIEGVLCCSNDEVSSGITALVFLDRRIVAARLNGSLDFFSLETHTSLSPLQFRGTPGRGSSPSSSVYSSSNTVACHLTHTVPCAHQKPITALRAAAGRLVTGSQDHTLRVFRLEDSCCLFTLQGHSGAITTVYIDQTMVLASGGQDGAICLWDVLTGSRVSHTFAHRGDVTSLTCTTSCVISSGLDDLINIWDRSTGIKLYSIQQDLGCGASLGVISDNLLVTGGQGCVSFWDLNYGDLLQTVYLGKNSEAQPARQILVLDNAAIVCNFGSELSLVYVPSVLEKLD

Another experiment has as its target T2, FLAG-Sac1 WT (human) (UniProt Q9NTJ5).
T2 sequence: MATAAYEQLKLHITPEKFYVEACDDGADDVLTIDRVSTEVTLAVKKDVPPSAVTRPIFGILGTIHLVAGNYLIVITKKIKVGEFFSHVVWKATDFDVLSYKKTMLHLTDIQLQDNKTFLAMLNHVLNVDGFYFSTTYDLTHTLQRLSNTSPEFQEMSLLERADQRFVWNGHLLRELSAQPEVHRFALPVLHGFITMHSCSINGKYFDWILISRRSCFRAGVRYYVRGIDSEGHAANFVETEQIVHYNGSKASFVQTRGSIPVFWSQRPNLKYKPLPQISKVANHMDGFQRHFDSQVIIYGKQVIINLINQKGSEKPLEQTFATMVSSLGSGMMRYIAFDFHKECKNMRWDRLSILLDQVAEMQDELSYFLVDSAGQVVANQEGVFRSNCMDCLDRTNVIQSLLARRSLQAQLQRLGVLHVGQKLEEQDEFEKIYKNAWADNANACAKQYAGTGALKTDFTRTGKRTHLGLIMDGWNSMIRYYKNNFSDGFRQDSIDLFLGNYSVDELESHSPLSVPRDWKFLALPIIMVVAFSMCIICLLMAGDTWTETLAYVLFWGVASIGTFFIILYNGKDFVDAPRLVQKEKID

The next experiment has as its target T3, FLAG-SREBP2 (UniProt Q12772).
T3 sequence: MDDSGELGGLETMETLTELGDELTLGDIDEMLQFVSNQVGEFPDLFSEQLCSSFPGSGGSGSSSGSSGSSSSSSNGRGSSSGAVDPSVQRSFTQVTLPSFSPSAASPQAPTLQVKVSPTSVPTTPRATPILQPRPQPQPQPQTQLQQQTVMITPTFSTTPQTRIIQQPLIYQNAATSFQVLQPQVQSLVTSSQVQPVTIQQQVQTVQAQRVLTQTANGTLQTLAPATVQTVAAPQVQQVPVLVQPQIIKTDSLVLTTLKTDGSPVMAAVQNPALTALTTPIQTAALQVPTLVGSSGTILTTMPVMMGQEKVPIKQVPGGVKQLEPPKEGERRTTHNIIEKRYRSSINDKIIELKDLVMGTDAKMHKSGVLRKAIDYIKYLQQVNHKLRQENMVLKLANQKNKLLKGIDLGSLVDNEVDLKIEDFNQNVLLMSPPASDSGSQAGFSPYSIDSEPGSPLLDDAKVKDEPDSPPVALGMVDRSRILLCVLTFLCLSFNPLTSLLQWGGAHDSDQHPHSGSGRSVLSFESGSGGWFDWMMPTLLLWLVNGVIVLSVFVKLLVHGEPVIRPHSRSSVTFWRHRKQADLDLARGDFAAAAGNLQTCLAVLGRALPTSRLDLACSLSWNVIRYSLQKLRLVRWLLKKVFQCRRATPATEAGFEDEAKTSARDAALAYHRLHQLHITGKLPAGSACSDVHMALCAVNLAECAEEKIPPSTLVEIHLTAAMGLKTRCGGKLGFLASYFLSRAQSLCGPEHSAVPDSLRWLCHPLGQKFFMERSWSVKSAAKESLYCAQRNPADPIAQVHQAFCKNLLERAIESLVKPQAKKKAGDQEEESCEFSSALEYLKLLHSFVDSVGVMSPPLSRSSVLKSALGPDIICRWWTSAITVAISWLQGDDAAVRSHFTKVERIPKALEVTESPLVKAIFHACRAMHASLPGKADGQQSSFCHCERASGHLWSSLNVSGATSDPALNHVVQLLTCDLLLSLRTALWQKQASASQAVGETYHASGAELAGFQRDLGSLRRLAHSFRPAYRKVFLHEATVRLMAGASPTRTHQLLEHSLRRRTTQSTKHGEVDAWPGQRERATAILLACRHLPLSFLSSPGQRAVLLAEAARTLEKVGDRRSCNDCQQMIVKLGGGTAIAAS

In a further experiment the target is T4, FLAG-SREBP1a (UniProt P36956).
T4 sequence: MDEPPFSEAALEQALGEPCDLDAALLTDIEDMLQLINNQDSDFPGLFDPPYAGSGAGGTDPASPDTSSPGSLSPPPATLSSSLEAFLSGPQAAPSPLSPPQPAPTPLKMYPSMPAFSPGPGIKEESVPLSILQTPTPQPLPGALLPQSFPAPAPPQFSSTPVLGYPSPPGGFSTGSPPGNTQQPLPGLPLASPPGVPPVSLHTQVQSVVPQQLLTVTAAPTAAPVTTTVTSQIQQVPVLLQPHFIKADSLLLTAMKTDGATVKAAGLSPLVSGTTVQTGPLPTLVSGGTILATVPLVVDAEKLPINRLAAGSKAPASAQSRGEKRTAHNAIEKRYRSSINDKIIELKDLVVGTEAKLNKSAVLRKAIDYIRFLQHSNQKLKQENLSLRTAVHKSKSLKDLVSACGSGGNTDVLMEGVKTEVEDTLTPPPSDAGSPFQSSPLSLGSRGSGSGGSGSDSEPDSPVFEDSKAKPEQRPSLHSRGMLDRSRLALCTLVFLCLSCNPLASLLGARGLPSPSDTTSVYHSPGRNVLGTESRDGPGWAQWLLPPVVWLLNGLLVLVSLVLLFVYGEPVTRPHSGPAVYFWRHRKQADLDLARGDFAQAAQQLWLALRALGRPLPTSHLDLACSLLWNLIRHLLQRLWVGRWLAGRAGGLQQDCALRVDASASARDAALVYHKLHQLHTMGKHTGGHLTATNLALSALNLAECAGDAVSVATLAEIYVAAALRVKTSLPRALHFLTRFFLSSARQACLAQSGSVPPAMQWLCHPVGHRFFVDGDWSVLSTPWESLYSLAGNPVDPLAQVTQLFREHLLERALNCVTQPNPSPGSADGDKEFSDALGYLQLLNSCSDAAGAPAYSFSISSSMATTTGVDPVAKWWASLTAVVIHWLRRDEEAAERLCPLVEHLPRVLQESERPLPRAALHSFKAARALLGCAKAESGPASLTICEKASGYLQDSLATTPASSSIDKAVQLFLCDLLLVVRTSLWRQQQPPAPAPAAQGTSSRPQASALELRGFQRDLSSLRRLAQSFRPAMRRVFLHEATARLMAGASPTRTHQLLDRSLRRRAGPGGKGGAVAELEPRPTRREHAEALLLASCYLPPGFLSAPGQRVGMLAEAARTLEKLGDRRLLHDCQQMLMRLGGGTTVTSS

Drawing on doi:10.1101/679936, this text covers binding for three molecules.

No constants are given. Whether binding was seen depends on the method and setting. In cells and extracts the contact can be indirect. Some results given as binding are weak or reduced against the parent protein; the word gives no strength. Sequences can lack the tags named with a protein.

B1: Sac1, endogenous in HeLa (protein, UniProt Q9NTJ5 1-587)
chain: MATAAYEQLKLHITPEKFYVEACDDGADDVLTIDRVSTEVTLAVKKDVPPSAVTRPIFGILGTIHLVAGNYLIVITKKIKVGEFFSHVVWKATDFDVLSYKKTMLHLTDIQLQDNKTFLAMLNHVLNVDGFYFSTTYDLTHTLQRLSNTSPEFQEMSLLERADQRFVWNGHLLRELSAQPEVHRFALPVLHGFITMHSCSINGKYFDWILISRRSCFRAGVRYYVRGIDSEGHAANFVETEQIVHYNGSKASFVQTRGSIPVFWSQRPNLKYKPLPQISKVANHMDGFQRHFDSQVIIYGKQVIINLINQKGSEKPLEQTFATMVSSLGSGMMRYIAFDFHKECKNMRWDRLSILLDQVAEMQDELSYFLVDSAGQVVANQEGVFRSNCMDCLDRTNVIQSLLARRSLQAQLQRLGVLHVGQKLEEQDEFEKIYKNAWADNANACAKQYAGTGALKTDFTRTGKRTHLGLIMDGWNSMIRYYKNNFSDGFRQDSIDLFLGNYSVDELESHSPLSVPRDWKFLALPIIMVVAFSMCIICLLMAGDTWTETLAYVLFWGVASIGTFFIILYNGKDFVDAPRLVQKEKID
B1: in experiment [1], the binding entry is given as “binds weakly”.

B2: Myc-OSBP (protein, UniProt P16258 1-809)
chain: MAATELRGVVGPGPAAIAAPGGGGAGPPVVGGGGGGRGDAGPGSGAASGTVAAAAAGGQGPGAGGVAAAAGPAPTPPAGGSGSSGTGGSGSAREGWLFKWTNYIKGYQRRWFVLSNGLLSYYRSKAEMRHTCRGTINLATANITVEDSCNFIISNGGAQTYHLKASSEVERQRWVTALELAKAKAVKMLAESDESGDEESVSQTDKTELQNTLRTLSSKVEDLSTCNDLIAKHGTALQRSLSELESLKLPAESNEKIKQVNERATLFRITSNAMINACRDFLVLAQTHSKKWQKSLQYERDQRIRLEETLEQLAKQHNHLERAFRGATVLPAHTSGSAGSGKDQCCSGKGDMSDEDDENEFFDAPEIITMPENLGHKRTGSNISGASSDISLDEQYKHQLEETKKEKRTRIPYKPNYSLNLWSIMKNCIGKELSKIPMPVNFNEPLSMLQRLTEDLEYHELLDRAAKCENSLEQLCYVAAFTVSSYSTTVFRTSKPFNPLLGETFELDRLEENGYRSLCEQVSHHPPAAAHHAESKNGWTLRQEIKITSKFRGKYLSIMPLGTIHCIFHATGHHYTWKKVTTTVHNIIVGKLWIDQSGEIDIVNHKTGDKCNLKFVPYSYFSRDVARKVTGEVTDPSGKVHFALLGTWDEKMDCFKVQPVSGENGGDARQRGHEAEESRVMLWKRNPLPKNAENMYYFSELALTLNAWEGGTAPTDSRLRPDQRLMENGRWDEANAEKQRLEEKQRLSRKKREAEAMKATEDGTPYDPYKALWFERKKDPVTKELTHIYRGEYWECKEKQDWNSCPDIF
B2: the binding entry with FLAG-Sac1 WT (human), with FLAG-SREBP2 and in the experiment with FLAG-SREBP1a was “binds” each time.

B3: Bap31, endogenous in HeLa (protein, UniProt P51572 1-246)
chain: MSLQWTAVATFLYAEVFVVLLLCIPFISPKRWQKIFKSRLVELLVSYGNTFFVVLIVILVLLVIDAVREIRKYDDVTEKVNLQNNPGAMEHFHMKLFRAQRNLYIAGFSLLLSFLLRRLVTLISQQATLLASNEAFKKQAESASEAAKKYMEENDQLKKGAAVDGGKLDVGNAEVKLEEENRSLKADLQKLKDELASTKQKLEKAENQVLAMRKQSEGLTKEYDRLLEEHAKLQAAVDGPMDKKEE
For the molecule B3, the binding entry in experiment [1] is reported as “no binding”.
